Data as given in PubChem BioAssay AID504774 (Drosophila RNAi Screening Center, 2011)
In all, the deposit lists about 23,000 reagents; this is a random part of those that have a named target and a result. 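Values are quantile-normalised luminescence on an arbitrary scale; higher means more cells surviving MMS.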 Names joined by + are all predicted targets of the reagent.

Purpose: 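Genes required for cells to withstand methyl methanesulphonate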 (primary screen)
System: Drosophila Kc167 cells
Reagent: long dsRNA against Drosophila genes, about 0.25 µg dsRNA per well
Timing: about 6 days: 3 days knock-down, then 3 days with or without MMS
Conditions: methyl methanesulphonate 0.004% (w/v) for 3 days after knock-down
Measurement: 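ATP-dependent luminescence as a measure of live cells in MMS-exposed wells, quantile normalised within each plate, with replicate values also given as a mean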
Scale: mean viability with MMS and viability with MMS: higher = more surviving cells after MMS

Target gene | amplicon | mean viability with MMS | viability with MMS, replicate 1 | viability with MMS, replicate 2
CG14931 | DRSC02413 | 3.42e6 | 3.96e6 | 3.78e6
Grip84 | DRSC20248 | 3.48e6 | 4.02e6 | 3.87e6
Jon99Ciii | DRSC16859 | 3.28e6 | 3.63e6 | 3.67e6
Trmt6 | DRSC03272 | 3.71e6 | 4.05e6 | 4.27e6
Lk6 | DRSC12867 | 3.62e6 | 4.07e6 | 4.09e6
Lk6 | DRSC16728 | 3.58e6 | 4.01e6 | 4.13e6
CG17600 | DRSC20638 | 3.64e6 | 4.02e6 | 4.18e6
CG17600 | DRSC20640 | 3.53e6 | 3.97e6 | 4.04e6
CG17600 | DRSC22753 | 3.57e6 | 4.06e6 | 4.01e6
CG33013 (retired record) | DRSC06286 | 3.73e6 | 4.55e6 | 4.10e6
CG13230 | DRSC06350 | 3.48e6 | 3.86e6 | 3.98e6
PGRP-LA | DRSC10327 | 3.61e6 | 4.22e6 | 3.94e6
PGRP-LA | DRSC10414 | 3.50e6 | 4.13e6 | 3.79e6
Tango4 | DRSC19786 | 2.82e6 | 3.16e6 | 3.39e6
Cp36 | DRSC18452 | 3.55e6 | 4.06e6 | 3.99e6
CG42471 | DRSC01210 | 3.69e6 | 4.09e6 | 4.24e6
Hus1-like | DRSC12353 | 3.55e6 | 3.94e6 | 4.10e6
BaraA1 + BaraA2 | DRSC05417 | 3.72e6 | 4.15e6 | 4.16e6
Ih | DRSC07445 | 3.60e6 | 4.05e6 | 4.12e6
CG34319 (retired record) | DRSC18138 | 3.31e6 | 3.25e6 | 3.85e6
CG14882 | DRSC15006 | 3.54e6 | 4.04e6 | 3.99e6
Ets96B | DRSC16127 | 3.45e6 | 3.78e6 | 3.99e6
CR11386 + CR33222 | DRSC17781 | 3.51e6 | 3.94e6 | 4.03e6
CG9890 | DRSC04590 | 3.54e6 | 3.99e6 | 4.03e6
Rilpl | DRSC18494 | 3.58e6 | 4.07e6 | 4.05e6
Ddr | DRSC00922 | 3.74e6 | 4.34e6 | 4.08e6
Ddr | DRSC00923 | 3.44e6 | 3.93e6 | 3.91e6
Ddr | DRSC02150 | 3.45e6 | 3.87e6 | 3.96e6
Ddr | DRSC03229 | 3.46e6 | 3.74e6 | 3.81e6
Ddr | DRSC03230 | 3.61e6 | 4.03e6 | 4.12e6
Ddr | DRSC22818 | 3.75e6 | 4.52e6 | 3.94e6
Ugt36A1 + CG15418 | DRSC00432 | 3.81e6 | 4.10e6 | 4.38e6
stretch (retired record) | DRSC14347 | 3.05e6 | 3.65e6 | 3.76e6
stretch (retired record) | DRSC14512 | 3.61e6 | 4.16e6 | 3.98e6
stretch (retired record) | DRSC14541 | 3.72e6 | 4.23e6 | 4.04e6
stretch (retired record) | DRSC14542 | 3.56e6 | 4.05e6 | 4.02e6
stretch (retired record) | DRSC14543 | 3.62e6 | 4.09e6 | 4.06e6
stretch (retired record) | DRSC23038 | 3.65e6 | 4.24e6 | 4.04e6
CG17109 | DRSC15172 | 3.71e6 | 4.16e6 | 4.24e6
Idh | DRSC10779 | 3.56e6 | 3.95e6 | 4.12e6
CG11529 | DRSC09839 | 3.38e6 | 3.72e6 | 3.88e6
Trs33 | DRSC15990 | 3.65e6 | 4.41e6 | 3.88e6
Fitm | DRSC09772 | 3.47e6 | 3.93e6 | 3.93e6
PGRP-LB | DRSC14926 | 3.61e6 | 4.15e6 | 4.06e6
wts | DRSC17096 | 2.76e6 | 3.47e6 | 3.47e6
wts | DRSC22975 | 3.30e6 | 3.77e6 | 3.72e6
Nf-YA | DRSC10385 | 3.12e6 | 3.50e6 | 3.55e6
Nf-YA | DRSC23126 | 3.85e6 | 4.42e6 | 4.27e6
MESR6 | DRSC10720 | 3.55e6 | 4.07e6 | 3.98e6
lncRNA:iab4 | DRSC22331 | 3.49e6 | 3.96e6 | 3.97e6
Crg-1 | DRSC22882 | 3.38e6 | 3.85e6 | 3.93e6
Lip3 | DRSC16727 | 3.77e6 | 4.60e6 | 4.14e6

An excerpt from the list above, as a working copy:
Target gene | amplicon | mean viability with MMS | viability with MMS, replicate 1 | viability with MMS, replicate 2
Lk6 | DRSC12867 | 3.62e6 | 4.07e6 | 4.09e6
Lk6 | DRSC16728 | 3.58e6 | 4.01e6 | 4.13e6
CG17600 | DRSC20638 | 3.64e6 | 4.02e6 | 4.18e6
CG17600 | DRSC20640 | 3.53e6 | 3.97e6 | 4.04e6
CG17600 | DRSC22753 | 3.57e6 | 4.06e6 | 4.01e6
CG33013 (retired record) | DRSC06286 | 3.73e6 | 4.55e6 | 4.10e6

The list goes on:
Target gene | amplicon | mean viability with MMS | viability with MMS, replicate 1 | viability with MMS, replicate 2
PolA1 | DRSC16640 | 3.39e6 | 3.83e6 | 3.85e6
CG31229 | DRSC13309 | 3.39e6 | 3.74e6 | 3.90e6
CG1231 | DRSC08267 | 3.51e6 | 3.92e6 | 4.04e6
CG10516 | DRSC09738 | 3.72e6 | 4.16e6 | 4.21e6
Myt1 | DRSC11228 | 3.32e6 | 3.74e6 | 3.72e6
U2A | DRSC06445 | 3.32e6 | 3.78e6 | 3.80e6
tin | DRSC17083 | 3.78e6 | 4.57e6 | 4.02e6
tin | DRSC22853 | 3.08e6 | 3.80e6 | 3.65e6
tin | DRSC23248 | 3.34e6 | 3.82e6 | 3.77e6
CG5455 | DRSC15805 | 3.58e6 | 4.06e6 | 4.06e6
RpL39 | DRSC04651 | 2.90e6 | 3.48e6 | 3.47e6
AANATL2 | DRSC03227 | 3.56e6 | 4.11e6 | 3.95e6
Ugt37C2 | DRSC02247 | 3.51e6 | 3.95e6 | 4.02e6
CG3655 | DRSC17676 | 3.54e6 | 4.14e6 | 3.89e6
CG3655 | DRSC18181 | 3.61e6 | 4.06e6 | 4.12e6
CG3655 | DRSC18477 | 3.55e6 | 4.05e6 | 4.02e6
CG3655 | DRSC22688 | 3.63e6 | 4.05e6 | 4.13e6
CG15800 | DRSC04271 | 3.47e6 | 3.88e6 | 3.98e6
NdufA3 | DRSC18431 | 3.64e6 | 4.00e6 | 4.23e6
CG16820 | DRSC02522 | 3.53e6 | 3.96e6 | 4.06e6
CG17380 | DRSC15230 | 3.53e6 | 3.99e6 | 4.00e6
CG34301 | DRSC12704 | 3.43e6 | 3.76e6 | 4.02e6
Hs3st-B | DRSC20067 | 3.57e6 | 4.05e6 | 4.03e6
Jon66Cii | DRSC10778 | 3.78e6 | 4.23e6 | 4.32e6
kipf | DRSC15446 | 3.59e6 | 4.18e6 | 3.94e6
kipf | DRSC22871 | 3.54e6 | 3.94e6 | 4.10e6
loj | DRSC09791 | 3.60e6 | 4.18e6 | 3.98e6
Pebp1 | DRSC15354 | 3.42e6 | 3.89e6 | 3.90e6
bft (retired record) | DRSC21354 | 3.73e6 | 4.22e6 | 4.17e6
CG12912 | DRSC06227 | 2.57e6 | 3.55e6 | 3.55e6
CG12128 | DRSC06104 | 3.58e6 | 4.06e6 | 4.05e6
Coq4 + frc | DRSC10381 | 3.41e6 | 3.83e6 | 3.85e6
Coq4 + frc | DRSC10382 | 3.45e6 | 3.83e6 | 3.94e6
CG11291 | DRSC04097 | 3.36e6 | 3.83e6 | 3.74e6
CG14636 | DRSC12223 | 3.57e6 | 4.11e6 | 3.99e6
